At least one compound was matched to its structure with a doubt left.
Tested on: HBV
Test: Antiviral evaluation: extracellular (virion) HBV DNA levels produced by 2.2.15 cells
Type: cell-based, hepatitis B virus
Description: Details of the assay methodology can be found in: Korba and Gerin, Antiviral Res. 19: 55-70 (1992) and Korba, Antiviral Res. 29: 49-52 (1996). The antiviral evaluations were performed on six separate cultures per each of four test concentrations. All wells, in all plates, were seeded at the same density and at the same time.
Due to the inherent variations in the levels of both intracellular and extracellular HBV DNA, only depressions greater than 3.0-fold for HBV virion DNA from the average levels for these HBV DNA forms in untreated cells are generally considered to be statistically significant [P<0.05] (Korba and Gerin, Antiviral Res. 19: 55-70, 1992). Typical values for extracellular HBV virion DNA in untreated cells range from 80 to 150 pg/ml culture medium (average of approximately 92 pg/ml).
For reference, the manner in which the hybridization analyses were performed for these experiments results in an equivalence of approximately 1.0 pg of extracellular HBV DNA/ml culture medium to 3×10^5 viral particles/ml.
For the antiviral test analyses, confluent cultures were maintained on 96-well flat bottomed tissue culture plates. Two separate (replicate) plates were used for each drug treatment. A total of 3 cultures on each plate were treated with each of the dilutions of antiviral agents (6 cultures per dilution). […]

Nc1ccn([C@@H]2CS[C@H](CO)O2)c(=O)n1 [3TC, (−)β,L,2′,3′-dideoxy-3′thiacytidine, reference compound]
anti-HBV activity/potency compared with previous reports or earlier analyses: consistent with previous experiments
depression of extracellular (virion) HBV DNA levels (9 consecutive daily doses): significant depressions
